Experimental findings from patent US20190374506A1, “COMPOSITIONS AND METHODS FOR TREATING CANCER” (BETH ISREAL DEACONESS MEDICAL CENTER, priority 2016, published 2019) are described below.

The assay has as its target HA-PTEN (human), P60484. Kind of assay: anti-PTEN immunoprecipitation from DU145 cells transfected with HA-PTEN, SDS-PAGE, mass-spectrometric peptide sequencing of the bands (association in the precipitate). The following applies: remark: other sources report otherwise.

No constants are given. Whether binding was seen depends on the method and setting. Some entries that bind do so weakly or less than the wild type.

B1: C-1-tetrahydrofolate synthase (enzyme)
chain: MAPAEILNGKEISAQIRARLKNQVTQLKEQVPGFTPRLAILQVGNRDDSNLYINVKLKAAEEIGIKATHIKLPRTTTESEVMKYITSLNEDSTVHGFLVQLPLDSENSINTEEVINAIAPEKDVDGLTSINAGKLARGDLNDCFIPCTPKGCLELIKETGVPIAGRHAVVVGRSKIVGAPMHDLLLWNNATVTTCHSKTAHLDEEVNKGDILVVATGQPEMVKGEWIKPGAIVIDCGINYVPDDKKPNGRKVVGDVAYDEAKERASFITPVPGGVGPMTVAMLMQSTVESAKRFLEKFKPGKWMIQYNNLNLKTPVPSDIDISRSCKPKPIGKLAREIGLLSEEVELYGETKAKVLLSALERLKHRPDGKYVVVTGITPTPLGEGKSTTTIGLVQALGAHLYQNVFACVRQPSQGPTFGIKGGAAGGGYSQVIPMEEFNLHLTGDIHAITAANNLVAAAIDARIFHELTQTDKALFNRLVPSVNGVRRFSDIQIRRLKRLGIEKTDPTTLTDEEINRFARLDIDPETITWQRVLDTNDRFLRKITIGQAPTEKGHTRTAQFDISVASEIMAVLALTTSLEDMRERLGKMVVASSKKGEPVSAEDLGVSGALTVLMKDAIKPNLMQTLEGTPVFVHAGPFANIAHGNSSIIADRIALKLVGPEGFVVTEAGFGADIGMEKFFNIKCRYSGLCPHVVVLVATVRALKMHGGGPTVTAGLPLPKAYIQENLELVEKGFSNLKKQIENARMFGIPVVVAVNAFKTDTESELDLISRLSREHGAFDAVKCTHWAEGGKGALALAQAVQRAAQAPSSFQLLYDLKLPVEDKIRIIAQKIYGADDIELLPEAQHKAEVYTKQGFGNLPICMAKTHLSLSHNPEQKGVPTGFILPIRDIRASVGAGFLYPLVGTMSTMPGLPTRPCFYDIDLDPETEQVNGLF
For the molecule B1, the binding entry is listed as “binds”.
